{"source": "patent US20240044859A1", "about": "“METHOD FOR ASSESSING AROMA COMPONENT AND METHOD FOR PREPARING FLAVOR COMPOSITION” (Takasago International Corporation, priority 2020, published 2024)", "key": {"[1]": {"assay": "Retronasal aroma measured by PTR-TOFMS after drinking a flavored beverage sample (ion-exchanged water base), power function fit C=a*t^-b", "assay_type": "in vivo, human", "details": "Reference product 1 at 0.1% in ion-exchanged water, 5° C., 10 mL drunk; averaged over multiple measurements"}, "[2]": {"assay": "Retronasal aroma measured by PTR-TOFMS after consuming a flavored jelly sample (sugar/gelatin/water base), power function fit C=a*t^-b", "assay_type": "in vivo, human", "details": "Reference product 2 or 3 at 0.3% in jelly base, 5° C., 10 g consumed; averaged over multiple measurements"}}}
{"smiles": "CCC=CC=CC=O", "note": "[2,4-Heptadienal]", "values": [{"measurement": "a (area under the curve per unit amount (ppm) for the first breath)", "setting": "[1]", "value": 1.1}, {"measurement": "b (coefficient representing the degree of decay of the area under the curve)", "setting": "[1]", "value": 2.9}]}
{"smiles": "CC1=C(O)C(=O)CC1", "note": "[2-Hydroxy-3-methyl-2-cyclopentenone]", "values": [{"measurement": "a (area under the curve per unit amount (ppm) for the first breath)", "setting": "[1]", "value": 0.02}, {"measurement": "b (coefficient representing the degree of decay of the area under the curve)", "setting": "[1]", "value": 0.9}]}
{"smiles": "C=CCOC(=O)CCCCC", "note": "[Allyl hexanoate]", "values": [{"measurement": "a (area under the curve per unit amount (ppm) for the first breath)", "setting": "[1]", "value": 2.5}, {"measurement": "b (coefficient representing the degree of decay of the area under the curve)", "setting": "[1]", "value": 2.9}]}
{"smiles": "c1ccc2scnc2c1", "note": "[Benzothiazole]", "values": [{"measurement": "a (area under the curve per unit amount (ppm) for the first breath)", "setting": "[1]", "value": 0.8}, {"measurement": "b (coefficient representing the degree of decay of the area under the curve)", "setting": "[1]", "value": 0.7}]}
{"smiles": "C=CCc1ccc(OC(C)=O)c(OC)c1", "note": "[Eugenol acetate]", "values": [{"measurement": "a (area under the curve per unit amount (ppm) for the first breath)", "setting": "[2]", "value": 0.01}, {"measurement": "b (coefficient representing the degree of decay of the area under the curve)", "setting": "[2]", "value": 0.8}]}
{"smiles": "O=CCc1ccccc1", "note": "[Phenylacetaldehyde]", "values": [{"measurement": "a (area under the curve per unit amount (ppm) for the first breath)", "setting": "[1]", "value": 0.3}, {"measurement": "b (coefficient representing the degree of decay of the area under the curve)", "setting": "[1]", "value": 1.0}]}
{"smiles": "CCCCC/C=C/C=O", "note": "[Trans-2-octenal]", "values": [{"measurement": "a (area under the curve per unit amount (ppm) for the first breath)", "setting": "[2]", "value": 0.7}, {"measurement": "b (coefficient representing the degree of decay of the area under the curve)", "setting": "[2]", "value": 1.4}]}
{"smiles": "CC(=O)c1ccccc1N", "note": "[o-Aminoacetophenone]", "values": [{"measurement": "a (area under the curve per unit amount (ppm) for the first breath)", "setting": "[2]", "value": 0.02}, {"measurement": "b (coefficient representing the degree of decay of the area under the curve)", "setting": "[2]", "value": 0.4}]}
{"smiles": "COc1ccc(C=O)cc1", "note": "[p-Anisaldehyde]", "values": [{"measurement": "a (area under the curve per unit amount (ppm) for the first breath)", "setting": "[2]", "value": 0.1}, {"measurement": "b (coefficient representing the degree of decay of the area under the curve)", "setting": "[2]", "value": 0.3}]}
{"smiles": "Cc1ccc(C(C)C)cc1", "note": "[p-Cymene]", "values": [{"measurement": "a (area under the curve per unit amount (ppm) for the first breath)", "setting": "[1]", "value": 2.9}, {"measurement": "b (coefficient representing the degree of decay of the area under the curve)", "setting": "[1]", "value": 2.5}]}
{"smiles": "CC(=O)Oc1ccc(C)cc1", "note": "[p-Tolyl acetate]", "values": [{"measurement": "a (area under the curve per unit amount (ppm) for the first breath)", "setting": "[2]", "value": 0.8}, {"measurement": "b (coefficient representing the degree of decay of the area under the curve)", "setting": "[2]", "value": 1.4}]}
{"smiles": "C=C1CCC2CC1C2(C)C", "note": "(stereo not drawn) [β-pinene]", "values": [{"measurement": "a (area under the curve per unit amount (ppm) for the first breath)", "setting": "[2]", "value": 1.9}, {"measurement": "b (coefficient representing the degree of decay of the area under the curve)", "setting": "[2]", "value": 1.8}]}
